In experiment [1] the target is cynomolgus VISTA on the surface of K562 cells (cynomolgus). The experiment in a line: FACS K562.
The target in experiment [2] is T1, human VISTA on the surface of cells (human) (UniProt Q9H7M9).
T1 sequence: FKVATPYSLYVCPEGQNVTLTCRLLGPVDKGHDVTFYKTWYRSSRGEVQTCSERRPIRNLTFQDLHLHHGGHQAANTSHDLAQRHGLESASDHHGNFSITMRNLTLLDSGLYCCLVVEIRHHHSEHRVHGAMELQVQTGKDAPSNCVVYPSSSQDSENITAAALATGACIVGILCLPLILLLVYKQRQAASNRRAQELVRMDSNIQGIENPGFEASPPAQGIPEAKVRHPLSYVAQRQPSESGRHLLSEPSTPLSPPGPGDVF
The experiment in a line: FACS K562.

Experiment [3] deals with T1, human VISTA on the surface of cells (human). Kind of experiment: flow cytometry on K562-G8 cells expressing human VISTA, antibody at 5 ug/ml, goat anti-human IgG1-PE, axis h-IgG-FC-PE Intensity. Background: In flow cytometry, cells or beads pass a laser one at a time.
For experiment [4], the target named is T2, human VISTA protein, deglycosylated with PNGase F (human) (UniProt Q9H7M9).
T2 sequence (chain, deglycosylated with PNGase F (six N-linked glycosylation sites)): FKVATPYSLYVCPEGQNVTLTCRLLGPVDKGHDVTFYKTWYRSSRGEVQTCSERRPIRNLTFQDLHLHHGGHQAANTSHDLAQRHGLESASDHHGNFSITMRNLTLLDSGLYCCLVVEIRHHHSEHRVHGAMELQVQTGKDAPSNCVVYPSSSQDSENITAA
The experiment in a line: HDX-MS with Fab.

No constants are given. Whether binding was seen depends on the method and setting. Some results given as binding are weak or reduced against the parent protein; the word gives no strength.

B1: VSTB53 (antibody, human IgG1, kappa, V domains shown)
VH: QVQLVQSGAEVKKPGASVKVSCKASGYTFTHYTIHWVRQAPGQGLEWMGYIIPSSGYSEYNQKFKDRVTMTRDTSTSTVYMELSSLRSEDTAVYYCARGAYDDYYDYYAMDYWGQGTLVTVSS
VL: DIVMTQSPLSLPVTPGEPASISCRSSQTIVHSNGNTYLEWYLQKPGQSPQLLIYKVSNRFSGVPDRFSGSGSGTDFTLKISRVEAEDVGVYYCFQASHVPWTFGQGTKLEIKR
Regarding B1, the binding entry in experiment [1], in experiment [2] and in experiment [3] was “binds” each time.

B2: Fab of VSTB95 (Fab, V domains shown)
VH: EVQLVESGGGLVQPGGSLRLSCAASGFTFRNYGMSWVRQAPGKGLEWVASIISGGSYTYYPDSVKGRFTISRDNAKNSLYLQMNSLRAEDTAVYYCARIYDHDGDYYAMDYWGQGTTVTVSS
VL: DIVMTQSPLSLPVTPGEPASISCRSSQSIVHSNGNTYLEWYLQKPGQSPQLLIYKVSNRFSGVPDRFSGSGSGTDFTLKISRVEAEDVGVYYCFQGSHVPWTFGQGTKLEIKR
For the molecule B2, the binding entry in experiment [4] is “binds”.

B3: VSTB95 (antibody, human IgG1, kappa, V domains shown)
VH: EVQLVESGGGLVQPGGSLRLSCAASGFTFRNYGMSWVRQAPGKGLEWVASIISGGSYTYYPDSVKGRFTISRDNAKNSLYLQMNSLRAEDTAVYYCARIYDHDGDYYAMDYWGQGTTVTVSS
VL: DIVMTQSPLSLPVTPGEPASISCRSSQSIVHSNGNTYLEWYLQKPGQSPQLLIYKVSNRFSGVPDRFSGSGSGTDFTLKISRVEAEDVGVYYCFQGSHVPWTFGQGTKLEIKR
Turning to B3, the binding result in experiment [1], in experiment [2] and in experiment [3] was “binds” throughout.

B4: VSTB50 (antibody, human IgG1, kappa, V domains shown)
VH: QVQLVQSGSELKKPGASVKVSCKASGYTFTNYGLNWVRQAPGQGLEWMGWINPYTGEPTYADDFKGRFVFSLDTSVSTAYLQICSLKAEDTAVYYCAREGYGNYIFPYWGQGTLVTVSS
VL: DIVMTQTPLSLSVTPGQPASISCRASESVDTYANSLMHWYLQKPGQPPQLLIYRASNLESGVPDRFSGSGSGTDFTLKISRVEAEDVGVYYCQQTNEDPRTFGQGTKLEIKR
As to B4, the binding entry in experiment [1], in experiment [2] and in experiment [3] was “binds” in each case.

B5: Fab of VSTB50 (Fab, V domains shown)
VH: QVQLVQSGSELKKPGASVKVSCKASGYTFTNYGLNWVRQAPGQGLEWMGWINPYTGEPTYADDFKGRFVFSLDTSVSTAYLQICSLKAEDTAVYYCAREGYGNYIFPYWGQGTLVTVSS
VL: DIVMTQTPLSLSVTPGQPASISCRASESVDTYANSLMHWYLQKPGQPPQLLIYRASNLESGVPDRFSGSGSGTDFTLKISRVEAEDVGVYYCQQTNEDPRTFGQGTKLEIKR
As for B5, in experiment [4], the binding result is reported as “binds”.

B6: VSTB60 (antibody, human IgG1, kappa, V domains shown)
VH: QVQLVQSGSELKKPGASVKVSCKASGYTFTNYGMTWVRQAPGQGLEWMGWINTYTGESTYADDFKGRFVFSLDTSVSTAYLQICSLKAEDTAVYYCARDYYGIYVSAYWGQGTLVTVSS
VL: DIVMTQTPLSLSVTPGQPASISCRASESVDNYANSFMHWYLQKPGQSPQLLIYRASNLESGVPDRFSGSGSGTDFTLKISRVEAEDVGVYYCQQSHEDPYTFGQGTKLEIKR
As to B6, the binding entry in experiment [1], in experiment [2] and in experiment [3] was “binds” in each case.
